Reference: article doi:10.1101/348953

By UniProt entry, the sequences of proteins in these tests, tags left out.
UniProt Q9JLV1: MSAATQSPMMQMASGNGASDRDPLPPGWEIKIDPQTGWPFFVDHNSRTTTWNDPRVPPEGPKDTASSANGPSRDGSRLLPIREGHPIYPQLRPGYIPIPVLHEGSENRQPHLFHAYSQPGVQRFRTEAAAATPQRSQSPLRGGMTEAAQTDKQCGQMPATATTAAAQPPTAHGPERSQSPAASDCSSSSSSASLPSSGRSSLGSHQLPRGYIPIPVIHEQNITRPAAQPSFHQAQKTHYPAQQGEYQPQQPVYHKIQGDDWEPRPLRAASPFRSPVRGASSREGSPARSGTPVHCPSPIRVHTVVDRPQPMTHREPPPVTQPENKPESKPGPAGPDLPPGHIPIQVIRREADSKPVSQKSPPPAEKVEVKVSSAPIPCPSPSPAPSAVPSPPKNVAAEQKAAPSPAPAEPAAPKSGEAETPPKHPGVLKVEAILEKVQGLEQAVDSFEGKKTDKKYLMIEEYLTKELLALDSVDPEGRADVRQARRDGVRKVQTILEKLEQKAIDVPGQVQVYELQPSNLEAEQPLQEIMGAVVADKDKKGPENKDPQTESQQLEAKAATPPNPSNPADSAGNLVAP
UniProt Q9JKS4: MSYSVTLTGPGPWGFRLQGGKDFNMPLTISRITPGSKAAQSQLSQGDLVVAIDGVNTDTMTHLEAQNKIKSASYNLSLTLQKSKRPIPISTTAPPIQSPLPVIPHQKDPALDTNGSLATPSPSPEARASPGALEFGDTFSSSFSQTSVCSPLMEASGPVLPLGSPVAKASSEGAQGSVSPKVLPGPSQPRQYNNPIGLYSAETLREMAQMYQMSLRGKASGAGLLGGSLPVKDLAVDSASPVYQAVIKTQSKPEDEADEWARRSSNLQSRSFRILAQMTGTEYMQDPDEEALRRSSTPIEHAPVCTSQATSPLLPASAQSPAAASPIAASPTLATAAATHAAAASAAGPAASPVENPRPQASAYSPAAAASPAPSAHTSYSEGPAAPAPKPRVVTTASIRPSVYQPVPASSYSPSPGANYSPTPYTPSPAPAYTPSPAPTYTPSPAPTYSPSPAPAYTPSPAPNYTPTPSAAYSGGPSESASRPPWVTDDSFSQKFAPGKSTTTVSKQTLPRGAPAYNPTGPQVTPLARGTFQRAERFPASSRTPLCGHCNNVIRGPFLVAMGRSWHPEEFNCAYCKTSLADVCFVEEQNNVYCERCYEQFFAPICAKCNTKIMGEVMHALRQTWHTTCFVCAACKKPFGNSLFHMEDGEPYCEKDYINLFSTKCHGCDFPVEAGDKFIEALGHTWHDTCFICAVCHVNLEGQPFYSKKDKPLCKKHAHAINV
UniProt Q9QZQ1: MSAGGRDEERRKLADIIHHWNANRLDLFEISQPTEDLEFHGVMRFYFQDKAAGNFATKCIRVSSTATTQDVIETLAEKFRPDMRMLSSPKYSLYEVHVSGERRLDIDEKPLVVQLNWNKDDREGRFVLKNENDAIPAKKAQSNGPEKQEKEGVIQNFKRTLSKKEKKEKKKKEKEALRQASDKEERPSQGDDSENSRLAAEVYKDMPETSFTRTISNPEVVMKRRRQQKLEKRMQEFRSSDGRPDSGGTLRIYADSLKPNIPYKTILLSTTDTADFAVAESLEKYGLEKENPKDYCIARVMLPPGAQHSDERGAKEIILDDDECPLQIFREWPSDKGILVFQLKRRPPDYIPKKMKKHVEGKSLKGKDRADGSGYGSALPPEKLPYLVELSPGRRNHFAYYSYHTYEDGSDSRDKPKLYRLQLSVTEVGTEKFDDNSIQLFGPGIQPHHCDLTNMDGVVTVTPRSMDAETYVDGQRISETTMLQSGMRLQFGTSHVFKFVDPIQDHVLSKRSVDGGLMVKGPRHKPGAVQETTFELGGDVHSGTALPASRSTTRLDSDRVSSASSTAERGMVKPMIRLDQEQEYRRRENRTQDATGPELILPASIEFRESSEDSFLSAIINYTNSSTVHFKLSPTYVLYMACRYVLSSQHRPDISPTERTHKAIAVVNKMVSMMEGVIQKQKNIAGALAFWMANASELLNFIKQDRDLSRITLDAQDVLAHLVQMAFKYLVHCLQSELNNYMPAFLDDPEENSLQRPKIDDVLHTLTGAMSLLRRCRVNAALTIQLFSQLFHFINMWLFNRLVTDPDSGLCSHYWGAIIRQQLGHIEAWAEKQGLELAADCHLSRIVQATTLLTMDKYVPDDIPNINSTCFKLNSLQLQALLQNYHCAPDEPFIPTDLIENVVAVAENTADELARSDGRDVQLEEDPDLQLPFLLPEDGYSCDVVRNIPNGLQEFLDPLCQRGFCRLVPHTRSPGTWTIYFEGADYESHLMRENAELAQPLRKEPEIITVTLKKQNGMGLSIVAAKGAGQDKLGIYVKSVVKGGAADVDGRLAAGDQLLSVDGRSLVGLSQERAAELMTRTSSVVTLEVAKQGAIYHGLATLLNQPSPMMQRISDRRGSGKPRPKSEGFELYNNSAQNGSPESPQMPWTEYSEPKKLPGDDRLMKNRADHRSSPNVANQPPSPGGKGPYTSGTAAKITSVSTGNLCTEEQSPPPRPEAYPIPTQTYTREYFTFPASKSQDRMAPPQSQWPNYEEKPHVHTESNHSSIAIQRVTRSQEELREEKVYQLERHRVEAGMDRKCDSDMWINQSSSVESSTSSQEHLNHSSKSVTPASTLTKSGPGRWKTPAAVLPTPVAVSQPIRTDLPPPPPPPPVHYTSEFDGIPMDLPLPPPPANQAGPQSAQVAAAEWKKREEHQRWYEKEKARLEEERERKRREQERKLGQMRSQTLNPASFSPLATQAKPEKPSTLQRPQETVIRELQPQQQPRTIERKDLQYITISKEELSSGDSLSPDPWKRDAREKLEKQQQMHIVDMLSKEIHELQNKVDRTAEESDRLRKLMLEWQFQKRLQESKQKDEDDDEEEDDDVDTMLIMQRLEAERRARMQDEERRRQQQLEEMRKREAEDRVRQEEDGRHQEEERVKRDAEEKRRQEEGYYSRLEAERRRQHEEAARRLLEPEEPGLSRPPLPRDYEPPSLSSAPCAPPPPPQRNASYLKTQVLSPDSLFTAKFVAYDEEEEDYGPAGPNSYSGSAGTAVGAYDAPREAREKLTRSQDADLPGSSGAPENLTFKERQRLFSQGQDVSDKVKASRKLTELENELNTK
UniProt Q71LX4: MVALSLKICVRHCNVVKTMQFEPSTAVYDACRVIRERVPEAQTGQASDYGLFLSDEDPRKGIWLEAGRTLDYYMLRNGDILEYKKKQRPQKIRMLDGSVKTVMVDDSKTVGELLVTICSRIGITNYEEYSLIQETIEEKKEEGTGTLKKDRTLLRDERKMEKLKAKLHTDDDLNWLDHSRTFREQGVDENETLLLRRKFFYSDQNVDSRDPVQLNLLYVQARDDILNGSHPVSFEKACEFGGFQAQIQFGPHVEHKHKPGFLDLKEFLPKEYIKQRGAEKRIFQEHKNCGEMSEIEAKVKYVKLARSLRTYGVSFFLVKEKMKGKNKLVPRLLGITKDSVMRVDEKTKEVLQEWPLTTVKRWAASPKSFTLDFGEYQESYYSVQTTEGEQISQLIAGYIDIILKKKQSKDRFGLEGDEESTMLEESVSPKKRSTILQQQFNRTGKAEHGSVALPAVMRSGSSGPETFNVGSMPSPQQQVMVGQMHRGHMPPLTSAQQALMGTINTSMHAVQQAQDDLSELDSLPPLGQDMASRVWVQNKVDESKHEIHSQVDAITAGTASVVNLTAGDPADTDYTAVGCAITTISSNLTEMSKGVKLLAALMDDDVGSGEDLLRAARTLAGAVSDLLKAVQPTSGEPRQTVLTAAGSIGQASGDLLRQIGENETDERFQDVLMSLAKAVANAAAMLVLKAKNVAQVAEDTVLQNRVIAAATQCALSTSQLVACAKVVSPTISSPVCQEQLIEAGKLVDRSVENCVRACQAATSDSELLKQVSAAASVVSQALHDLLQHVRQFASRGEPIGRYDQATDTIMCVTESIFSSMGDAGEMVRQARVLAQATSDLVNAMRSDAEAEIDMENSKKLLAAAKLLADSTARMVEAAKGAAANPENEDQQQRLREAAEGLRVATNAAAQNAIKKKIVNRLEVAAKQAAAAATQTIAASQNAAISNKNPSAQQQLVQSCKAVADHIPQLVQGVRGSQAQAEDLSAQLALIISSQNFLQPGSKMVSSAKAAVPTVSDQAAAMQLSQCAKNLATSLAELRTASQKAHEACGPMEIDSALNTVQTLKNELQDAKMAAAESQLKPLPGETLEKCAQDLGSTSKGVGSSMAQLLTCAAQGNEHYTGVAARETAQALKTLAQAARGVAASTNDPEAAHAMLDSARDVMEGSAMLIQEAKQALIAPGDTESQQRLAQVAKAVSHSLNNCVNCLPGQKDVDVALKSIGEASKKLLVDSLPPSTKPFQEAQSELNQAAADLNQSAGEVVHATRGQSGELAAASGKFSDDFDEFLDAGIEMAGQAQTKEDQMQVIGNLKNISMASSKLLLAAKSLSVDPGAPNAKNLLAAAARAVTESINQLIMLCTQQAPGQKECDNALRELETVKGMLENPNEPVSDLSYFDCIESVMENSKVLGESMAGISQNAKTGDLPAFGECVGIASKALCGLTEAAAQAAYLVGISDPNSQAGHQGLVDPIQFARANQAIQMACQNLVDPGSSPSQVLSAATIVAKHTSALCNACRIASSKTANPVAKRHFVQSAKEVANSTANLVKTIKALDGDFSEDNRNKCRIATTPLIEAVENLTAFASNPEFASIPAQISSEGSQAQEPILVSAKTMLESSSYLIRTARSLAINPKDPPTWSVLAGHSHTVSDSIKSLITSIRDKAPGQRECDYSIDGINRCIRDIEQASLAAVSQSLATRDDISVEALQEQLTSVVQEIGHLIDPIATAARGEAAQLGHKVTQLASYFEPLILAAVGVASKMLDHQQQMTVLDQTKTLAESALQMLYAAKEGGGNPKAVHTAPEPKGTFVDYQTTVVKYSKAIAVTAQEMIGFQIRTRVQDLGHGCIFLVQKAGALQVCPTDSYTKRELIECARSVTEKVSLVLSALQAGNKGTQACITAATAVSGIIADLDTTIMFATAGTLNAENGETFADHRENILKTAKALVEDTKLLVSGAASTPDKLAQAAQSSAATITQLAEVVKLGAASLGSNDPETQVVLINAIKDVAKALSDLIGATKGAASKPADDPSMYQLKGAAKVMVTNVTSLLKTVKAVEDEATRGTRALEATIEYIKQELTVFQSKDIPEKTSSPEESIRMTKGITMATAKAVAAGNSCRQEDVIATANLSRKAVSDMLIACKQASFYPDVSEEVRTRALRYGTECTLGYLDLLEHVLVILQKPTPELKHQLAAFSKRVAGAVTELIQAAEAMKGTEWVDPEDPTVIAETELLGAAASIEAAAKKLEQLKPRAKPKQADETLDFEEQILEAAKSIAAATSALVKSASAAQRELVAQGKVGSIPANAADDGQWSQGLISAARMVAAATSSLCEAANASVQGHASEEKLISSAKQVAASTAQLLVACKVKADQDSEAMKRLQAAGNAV
UniProt P26231: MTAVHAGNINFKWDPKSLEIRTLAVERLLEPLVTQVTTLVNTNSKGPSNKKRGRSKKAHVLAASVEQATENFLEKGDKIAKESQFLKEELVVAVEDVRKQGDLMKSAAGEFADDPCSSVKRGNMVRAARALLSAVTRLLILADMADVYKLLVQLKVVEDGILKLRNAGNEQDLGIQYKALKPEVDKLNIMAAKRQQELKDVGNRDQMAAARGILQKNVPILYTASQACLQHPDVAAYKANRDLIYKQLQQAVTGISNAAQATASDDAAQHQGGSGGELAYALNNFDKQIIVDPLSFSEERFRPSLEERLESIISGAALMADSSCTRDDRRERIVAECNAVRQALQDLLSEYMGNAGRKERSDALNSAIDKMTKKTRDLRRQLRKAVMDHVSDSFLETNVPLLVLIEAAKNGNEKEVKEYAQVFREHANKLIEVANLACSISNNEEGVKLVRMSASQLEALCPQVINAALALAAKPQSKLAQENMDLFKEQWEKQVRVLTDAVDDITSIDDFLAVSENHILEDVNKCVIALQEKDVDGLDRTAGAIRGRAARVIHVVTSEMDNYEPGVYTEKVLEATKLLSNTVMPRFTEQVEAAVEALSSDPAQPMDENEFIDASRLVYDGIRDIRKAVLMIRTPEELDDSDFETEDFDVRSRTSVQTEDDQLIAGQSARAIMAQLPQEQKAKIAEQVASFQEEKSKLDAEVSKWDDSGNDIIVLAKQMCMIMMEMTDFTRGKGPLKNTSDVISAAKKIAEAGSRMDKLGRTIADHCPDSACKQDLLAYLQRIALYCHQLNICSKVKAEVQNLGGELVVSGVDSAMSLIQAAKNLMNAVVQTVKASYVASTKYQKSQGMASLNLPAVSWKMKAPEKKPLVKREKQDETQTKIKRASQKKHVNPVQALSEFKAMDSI

B1: FHL1 (protein, UniProt P97447 1-280)
chain: MSEKFDCHYCRDPLQGKKYVQKDGRHCCLKCFDKFCANTCVDCRKPISADAKEVHYKNRYWHDNCFRCAKCLHPLASETFVSKDGKILCNKCATREDSPRCKGCFKAIVAGDQNVEYKGTVWHKDCFTCSNCKQVIGTGSFFPKGEDFYCVTCHETKFAKHCVKCNKAITSGGITYQDQPWHAECFVCVTCSKKLAGQRFTAVEDQYYCVDCYKNFVAKKCAGCKNPITGFGKGSSVVAYEGQSWHDYCFHCKKCSVNLANKRFVFHNEQVYCPDCAKKL
B2: ZYX (protein, UniProt Q62523 1-564)
chain: MAAPRPPPAISVSVSAPAFYAPQKKFAPVVAPKPKVNPFRPGDSEPPVAAGAQRAQMGRVGEIPPPPPEDFPLPPPPLIGEGDDSEGALGGAFPPPPPPMIEEPFPPAPLEEDIFPSPPPPLEEEGGPEAPTQLPPQPREKVCSIDLEIDSLSSLLDDMTKNDPFKARVSSGYVPPPVATPFVPKPSTKPAPGGTAPLPPWKTPSSSQPPPQPQAKPQVQLHVQPQAKPHVQPQPVSSANTQPRGPLSQAPTPAPKFAPVAPKFTPVVSKFSPGAPSGPGPQPNQKMVPPDAPSSVSTGSPQPPSFTYAQQKEKPLVQEKQHPQPPPAQNQNQVRSPGGPGPLTLKEVEELEQLTQQLMQDMEHPQRQSVAVNESCGKCNQPLARAQPAVRALGQLFHITCFTCHQCQQQLQGQQFYSLEGAPYCEGCYTDTLEKCNTCGQPITDRMLRATGKAYHPQCFTCVVCACPLEGTSFIVDQANQPHCVPDYHKQYAPRCSVCSEPIMPEPGRDETVRVVALDKNFHMKCYKCEDCGKPLSIEADDNGCFPLDGHVLCRKCHSARAQT
B3: TJP2 (protein, UniProt Q9Z0U1 1-1167)
chain: MEEVIWEQYTVTLQKDSKRGFGIAVSGGRDNPHFENGETSIVISDVLPGGPADGLLQENDRVVMVNGTPMEDVLHSFAVQQLRKSGKIAAIVVKRPRKVQVAPLQGSPPLSHDDRGFEVIEEFDGRSFRSGYSERSRHSSHDMLSHSWEGNRERGRPHQRTQSRERERSRGRSLERGLDQEDYGRSRERSRGRSLERGLDRDFVSRDHSRGRSIDRDYDRDYERSYHEAYEPDYGGGYSPSYDRRAHPETRYERSRSREHLRSRSPSPESRSRHEHKGQHDPDRPIGVLLTKSKANEEYGLRLGSQIFIKEMTRTGLATKDGNLHEGDIILKINGTVTENMSLTDARKLIEKSRGKLQLVVLRDSKQTLINIPALNDSDSEVEDISEIESNRSFSPEERRQQYSDQDYHSSTEKLKERPSSREETSGRLSRMGATPTPFKSTGDITAAGVTEASREPRYQEEGPVPQPRTAPRVFLRPSPEDEAIYGPNTKMVRFKKGDSVGLRLAGGNDVGIFVAGIQEGTSAEQEGLQEGDQILKVNTQDFRGLVREDAVLYLLEIPKGETVTILAQSRADVYRDILACGRGDSFFIRSHFECEKETPQSLAFTRGEVFRVVDTLYDGKLGHWLAVRIGNELEKGLIPNKSRAEQMASVQNAQRENAGDRADFWRMRGQRSSGGVKKNLRKSREDLAAAVSVSTKFPAYEKVLLREAGFKRPVVLFGPIADIAMERLATELPDLFQTAKTEPKDAGSEKSSGVVRLNTVRQIIEQDKHALLDVTPKAVDLLNYTQWFPIVIFFNPDSRQGVKTIRQRLSPTSNKSSRKLFDQANKLKKTCSHLFTATINVNSANDGWFGSLKDSIQQQQNEAVWVSEGKMEGMDDDAEDRMSYLTAMGADYLSCDSRLISDFEDTDGEGGAYTDNELEEPAEEPLVSSITRSSEPVQHEENIRKSSPEPRAQMRRAASRDQLRDASPPPAFKPEPPKARSQNREDSFDYSKSNLPATAGSEIPGGSTKGYPPPIAAKPAFGRPILKPSTPVPMPESEEVGESTEEQEDAPRSVLGRVKIFEKMDHKAKLQRMQELQEAQNARIEIAQKHPDIYAVPIKAPKPDAGLPPHMSSRPPEPQKAPSRLYQDTRGSYGSDPEEEEYRQQLAAHSKRGYYSQPSRYRDTEL
B4: PDLIM5 (protein, UniProt Q8CI51 1-591)
chain: MSNYSVSLVGPAPWGFRLQGGKDFNMPLTISSLKDGGKASQAHVRIGDVVLSIDGISAQGMTHLEAQNKIKACTGSLNMTLQRASAAAKSEPVSVQKGEPKEVVKPVPITSPAVSKVTSTTNMAYNKAPRPFGSVSSPKVTSIPSPSSAFTPAHAATSSHASPTPVAAATPLHLSASGLHVSANLSADQCSSPPNTGKPAVNVPRQPTVTSVCSESAQELAEGQRRGSQGDIKQQNGPPRKHIVERNTEFYHIPTHSDASKKRLIEDTEDWRPRTGTTQSRSFRILAQITGTEHLTESENDNTKKANSTQEPSQQPASSGASPLSASEGPESPGSSRPSVAGLRSAAAFKPVGSTSVKSPSWQRPNQAAPSTGRISNNARSSGTGASVGPPQPSDQDTLVQRAEHIPAGKRTPMCAHCNQVIRGPFLVALGKSWHPEEFNCAHCKNTMAYIGFVEEKGALYCELCYEKFFAPECGRCQRKILGEVINALKQTWHVSCFVCVACGKPIRNNVFHLEDGEPYCETDYYALFGTICRGCEFPIEAGDMFLEALGYTWHDTCFVCSVCCESLEGQTFFSKKDKPLCKKHAHSVNF
B5: PDLIM3 (protein, UniProt O70209 1-316)
chain: MPQNVVLPGPAPWGFRLSGGIDFNQPLVITRITPGSKAAAANLCPGDVILAIDGFGTESMTHADAQDRIKAASYQLCLKIDRAETRLWSPQVSEDGKAHPFKINLEAEPQEFKPIGTAHNRRAQPFVAAANIDDKRQVVSASYNSPIGLYSTSNIQDALHGQLRGLIPGSLQNEPTASVPPQSDVYRMLHDNRDDPAAPRQSGSFRVLQDLVNDGPDDRPAGTRSVRAPVTKVHGGAGSAQRMPLCDKCGSGIVGAVVKARDKYRHPECFVCADCNLNLKQKGYFFVEGELYCETHARARTRPPEGYDTVTLYPKA
B6: Synaptopodin 2 (SYNPO2) (protein, UniProt Q91YE8 1-1087)
chain: MGTGDFICISMTGGAPWGFRLQGGKEEQQPLQVAKIRSQSKASGSGLREGDEVVSINGNPCADLTYPEVIKLMEGITDSLHLLVKRPSSGTSETLDSESETTNHQHLTHEGPMESTTLQIQQATETQSEDFFLAPVQTKVPLTEDQSNAWGYAECPKEEQAPPMLGSQEGHLVEEVILRQKAEAGQPGHVVELQLSLSKERHQCTSGPIVTLQGNDKSTSPDPDWSSQLERTVHINSIPAPEKADTSLTSSTSSGRELRVIQGRDPGGAGLPQVEVILDCSDRLKAEECRLQTGRGCVASPVEGGRSEAPPSLVSFAVSSEGTEHGEDQRSGKDQSRPHKHRARHARLRRSESLSEKQVKEAKSKCKSIALLLTDAPNPNSKGVLMFKKRRRRARKYTLVSYGTGELEREEEEEEDQEAGDKDEISEVAFLGTSESEVDEELLSDVDDNTQVVNFDWDSGLVDIEKRLNRGDKMEMLPDTTGKGALMFAKRRERMEQFTAQNEEEKTGGMAGGGPDALQTDGLRTMTSYQRKEESVRMQSSVSESSFQMGRSLASVPQQNGFSGVSETAGAQRMFPMNRTAKPFLGSMNQPAAPFSPTRSVTSPISDFPAPPPYSAVSPPPEAFSRGVSSPVAGPAQPPPWPQPAPWSQPAFYDSSEQIASRDERIAVPAKRTGILQEAKRRGTTKPMFTFKETKVSPNPELLSLLQNAEGKRGTGGDSGPEEDYLSLGAEACNFMQSSAKQKTPPPVAPKPAVKSPSSSQPVAPVSPVWSPGVAPAQRPAFSTSNPPNPPQVTAVSSIKIAQPAAPPARPASALNLAGPFKGPQAVVVSHNYTPKPSAPTPLVNAAPAGAGGPSNELPGMSGKGAQLFAKRQSRMEKYVVDSDTVQAHTVRAQSPTPSLPASWKYSSNVRAPPPVAYNPIHSPSYPLAAIKSQPPGAQASKTSKKKGKKPLNTLDVMKHQPYQLNASLFTFQPPDSKDGLPQKSTVKVSSAPAMKQALPPRQANVGSPTNAQASSVYSVPAYTSQPNFFAAEATSPVSASPVPVSVPTSPKQESTSTSYFVAPRPKFSAKKSGVTVQVWKPSVVEE
B7: integrin ITGB5 (protein, UniProt O70309 24-798)
chain: GLNICTSGSATSCEECLLIHPKCAWCSKEYFGNPRSITSRCDLKANLIRNGCEGEIESPASSTHVLRNLPLSSKGSSATGSDVIQMTPQEIAVSLRPGEQTTFQLQVRQVEDYPVDLYYLMDLSLSMKDDLENIRSLGTKLAEEMRKLTSNFRLGFGSFVDKDISPFSYTAPRYQTNPCIGYKLFPNCVPSFGFRHLLPLTDRVDSFNEEVRKQRVSRNRDAPEGGFDAVLQAAVCKEKIGWRKDALHLLVFTTDDVPHIALDGKLGGLVQPHDGQCHLNEANEYTASNQMDYPSLALLGEKLAENNINLIFAVTKNHYMLYKNFTALIPGTTVEILHGDSKNIIQLIINAYSSIRAKVELSVWDQPEDLNLFFTATCQDGISYPGQRKCEGLKIGDTASFEVSVEARSCPGRQAAQSFTLRPVGFRDSLQVEVAYNCTCGCSTGLEPNSARCSGNGTYTCGLCECDPGYLGTRCECQEGENQSGYQNLCREAEGKPLCSGRGECSCNQCSCFESEFGRIYGPFCECDSFSCARNKGVLCSGHGECHCGECKCHAGYIGDNCNCSTDVSTCKAKDGQICSDRGRCVCGQCQCTEPGAFGETCEKCPTCPDACSSKRDCVECLLLHQGKPDNQTCHHQCKDEVITWVDTIVKDDQEAVLCFYKTAKDCVMMFSYTELPNGRSNLTVLREPECGSAPNAMTILLAVVGSILLIGMALLAIWKLLVTIHDRREFAKFQSERSRARYEMASNPLYRKPISTHTVDFAFNKFNKSYNGSV

These molecules were tested against Cdh2-BioID2 (mouse N-cadherin with BioID2-HA fused to the C-terminal tail) (mouse) (UniProt P15116) (assay: proximity labelling).
With BAG3 (from UniProt Q9JLV1 1-577) the binding was “binds”. For “Cortactin (CTTN) (from UniProt Q60598 1-546)”, the binding was “binds”. In the case of “Dishevelled Associated Activator of Morphogenesis 1 (DAAM1) (from UniProt Q8BPM0 1-1077)”, the binding is reported as “binds”. In the case of LDB3 (from UniProt Q9JKS4 1-723), the binding is reported as “binds”. In the case of “Supervillin (SVIL) (from UniProt Q8K4L3 1-2170)”, the binding is reported as “binds”. In the case of “afadin (AFDN) (from UniProt Q9QZQ1 1-1820)”, the binding is reported as “binds”. In the case of “integrin ITGB1 (from UniProt P09055 21-798)”, the binding is reported as “binds”. For talin TLN1 (from UniProt P26039 1-2541), the binding was “binds”. With talin TLN2 (from UniProt Q71LX4 1-2375) the binding was “binds”. With “vinculin (VCL) (from UniProt Q64727 1-1066)” the binding was “binds”. In the case of “αE-catenin (CTNNA1) (from UniProt P26231 1-906)”, the binding is reported as “binds”. In the case of “β-catenin (CTNNB1) (from UniProt Q02248 1-781)”, the binding is reported as “binds”.

Target: Cdh2-BioID2 (mouse N-cadherin with BioID2-HA fused to the C-terminal tail) (mouse) (UniProt P15116)
Experiment: proximity labelling
Remark: another data set of the same source
For B1, the binding was “binds”. For B2, the binding was “binds”. With B3 the binding was “binds”. B4 was tested, and the binding was “binds”. In the case of B5, the binding is reported as “binds”. For B6, the binding was “binds”. With B7 the binding was “binds”.

Results are given in words; binding and its absence hold for the method and conditions named. In cells and extracts the contact can be indirect. Here binding means that the protein was enriched with, or labelled near, the bait; the list need not be complete.
